# Assay results published in PMC9653470 (2022).
# For some assays here: HELM strings list residues between dots; [ac] is acetyl, [am] amide, other brackets name non-standard units.
# How the values were obtained:
# [1] = general procedure: Fmoc solid-phase peptide synthesis; 2-Chlorotrityl chloride resin (1.14 mmol g-1) or Rink amide resin (0.3–0.49 mmol g-1); DIC/Oxyma; conditions: late stage modification step, on diselenide 1
# [2] = general procedure: Fmoc solid-phase peptide synthesis; Rink amide; DIC/Oxyma; conditions: whole synthesis, scale 50 µmol
# [3] = general procedure: Fmoc solid-phase peptide synthesis; Rink amide resin; DIC/Oxyma; conditions: whole synthesis, scale 200 umol
substance,measurement,setting,value
"PEPTIDE1{[Sec].S.P.G.Y.S.[am]}|PEPTIDE2{[Ala_b].S.P.G.Y.S.[am]}$PEPTIDE1,PEPTIDE2,1:R3-1:R3$$$V2.0",step yield,[1],76%
[H2N-Sec-(PEG4)2-Arg8-CONH2]2 Diselenide,isolated mass,[2],25 mg
same,isolated yield,[2],42% yield
[H2N-USPGYS-NH2]2,isolated yield,[3]; from theoretical resin loading of 200 umol,28%
same,isolated mass,[3],42.5 mg
